The results in this text go back to PubChem BioAssay AID2685 (National Center for Advancing Translational Sciences (NCATS), 2010).

This is one part of the list. Further columns of the screen follow, without active or inactive calls. The list favours compounds with an active or inconclusive main result. Words in brackets tell the shape of the fitted curve; partial curves, single points and poor fits give uncertain potencies.

This assay can be described thus: qHTS Assay for Lipid Storage Modulators in Drosophila S3 Cells.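 For cell number change: cells counted by Cell Tracker Red CMTPX staining in the red channel.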 To be noted: BODIPY lipid droplet fluorescence, 18-24 h; for cell number change: measured here: cell count max response, cells fed with added oleic acid. An outline of the steps:
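Drosophila S3 cells loaded with oleic acid (400 uM, as added) and compounds at several concentrations; lipid droplets imaged by 488-nm laser-scanning cytometry, 500–530 nm intensity and object ratio to cell channel. Percent activity normalized to 20 uM Triacsin C.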

Where [1] appears, read: measured here: lipid fluorescence (Fed channel) AC50, cells fed with added oleic acid.
Where [2] appears, read: measured here: cell number channel AC50, cells fed with added oleic acid.

In the case of `CS(=O)(=O)N(CC(=O)Nc1ccc(Cl)c(Cl)c1)C1CCCCC1`, the cell number change was -10.8%. Moreover, the concentration at half-maximal activity (AC50) under setting [1] was 29.1 µM [rising, single point].
In the case of `NS(=O)(=O)c1ccc(CNC(=O)Cc2c(F)cccc2Cl)cc1`, the cell number change is 18.8%. Moreover, the AC50 under setting [1] was 0.82 µM [rising, full curve, poor fit].
Regarding `Clc1ccc(OCCOCCN2CCc3ccccc3C2)c(Cl)c1`, the cell number change was -30.4%. The AC50 under setting [2] was 14.6 µM [falling, single point]. Moreover, the AC50 under setting [1] was 18.4 µM [falling, single point].
For the molecule `CCOC(=O)c1c(C)[nH]c(C(=O)OCc2ccccc2F)c1C`, the cell number change is -6.25%. Also, the concentration at half-maximal activity (AC50) under setting [1] is 1.03 µM [rising, single point].
For the molecule `COc1cc(NC(=O)C2COc3ccccc3O2)c(OC)cc1Cl` (centres undefined), the cell number change worked out at 23.3%. The AC50 under setting [1] is 6.51 µM [rising, single point].
For `OCCC1CN(C2CCSCC2)CCN1C1CCCC1` (centres undefined), the cell number change was 9.75%. Under setting [1], the AC50 is 29.1 µM [falling, single point].
Turning to `C=CCNC(=S)NNC(=O)C(CCC(C)C)CC(C)O` (centres undefined), the cell number change is -3.31%. The AC50 under setting [1] was 29.1 µM [falling, single point].
In the case of `CC(C)(C)NC(=O)C1CCCN(S(=O)(=O)c2cccc3cccnc23)C1` (centres undefined), the cell number change is -0.506%. In addition, the AC50 under setting [2] was 1.16 µM [falling, single point]. For the same molecule, under setting [1], the AC50 was 1.16 µM [falling, single point].
In the case of `CC(C)(C)Nc1nc(Cl)nc(NC2CCCCC2)n1`, the cell number change was -40.2%. Also, the concentration at half-maximal activity (AC50) under setting [2] was 8.2 µM [falling, partial curve]. In addition, the AC50 under setting [1] is 29.1 µM [falling, single point].
Regarding `CN(NS(=O)(=O)c1ccc(Cl)cc1)c1nc(C(F)(F)F)nc2ccccc12`, under setting [1], the AC50 is 3.66 µM [falling, single point].
With `O=C(Cn1cc(C(F)(F)F)cc(Cl)c1=O)NCC1COc2ccccc2O1` (centres undefined), the cell number change was -3.89%. Besides, the AC50 under setting [1] is 5.8 µM [rising, full curve].
As for `CC1Cc2ccccc2N1C(=O)C1CCCN(S(=O)(=O)c2cccc3cccnc23)C1` (centres undefined), the cell number change worked out at 5.71%.
For `COc1cccc(NC(=O)CC(=O)c2ccccc2)c1`, the cell number change is 30.4%. Further, the AC50 under setting [2] was 29.1 µM [rising, single point]. Besides, under setting [1], the AC50 was 29.1 µM [rising, single point].
For the molecule `Cc1c(CCC(=O)NCCCn2ccnc2)c(=O)oc2c(C)c3oc4c(c3cc12)CCCC4`, the cell number change was -20.2%. The AC50 under setting [1] is 8.2 µM [falling, partial curve, poor fit].
In the case of `NC(=NCCc1ccc(Cl)cc1)NS(=O)(=O)c1ccccc1`, the cell number change turned out to be 14%. In addition, the AC50 under setting [1] was 29.1 µM [rising, single point].
Take `Cc1nn(CC(=O)N2CCOCC2)c(=O)c2ccccc12`: the AC50 under setting [1] was 2.59 µM [rising, full curve].
Consider `Cc1cc(NC(=O)C(C)Oc2ccc(Cl)cc2Cl)n(-c2ccccc2)n1` (centres undefined), for which the cell number change was determined as 13.8%. Also, the AC50 under setting [1] was 20.6 µM [rising, partial curve].
For `Cc1ccc(-n2nc3c(c2NC(=O)c2cccs2)CSC3)cc1`, the cell number change is 148%. The AC50 under setting [2] was 20.6 µM [rising, partial curve, poor fit].
In the case of `COc1ccccc1CC1(C)NC(=O)N(CC(=O)N2CCc3ccccc3C2)C1=O` (centres undefined), the cell number change was -4.33%.
For the molecule `COc1ccccc1-c1nc(C#N)c(NCCCn2ccnc2)o1`, the AC50 is 0.082 µM [rising, full curve, poor fit] under setting [2] and 0.082 µM [rising, full curve, poor fit] under setting [1].
As to `C=CCn1c(-c2ccc(Cl)cc2)cnc1SC(C)C(N)=O` (centres undefined), the cell number change was -18.5%. Moreover, the AC50 under setting [2] is 0.164 µM [falling, full curve, poor fit]. The half-maximal activity concentration (AC50) under setting [1] is 6.51 µM [falling, partial curve].
Consider `CC(C)N=C1NN=C(c2cccs2)CS1`, for which the cell number change is -23.8%. Under setting [1], the AC50 is 2.59 µM [falling, single point].
On to `CCOc1cccc(=O)c2c(C)n(C)c(C)c12`, for which the AC50 under setting [2] is 6.51 µM [rising, single point].
With `O=C(/C=C/c1ccccc1)NCC(=O)N/N=C/c1ccco1`, the cell number change worked out at 41.1%. Besides, the AC50 under setting [2] is 18.4 µM [rising, partial curve, poor fit]. Besides, under setting [1], the AC50 is 5.8 µM [rising, full curve].
For the molecule `O=C(NNC(=S)Nc1cccc(C(F)(F)F)c1)c1ccccc1Cl`, the cell number change was found to be 11.1%. The AC50 under setting [1] is 0.82 µM [rising, full curve, poor fit].
In the case of `Cn1c(N)c(C(=O)CSc2nc3ccccc3n2-c2ccccc2)c(=O)n(C)c1=O`, the cell number change is -6.12%. Further, under setting [1], the AC50 was 0.82 µM [rising, single point].
Consider `O=C(O)C1CC(O)CN1S(=O)(=O)c1cccs1` (centres undefined), for which the cell number change is -16.3%. For the same molecule, the AC50 under setting [1] is 6.51 µM [falling, single point].
Regarding `Cc1[nH]ccc(=O)c1Oc1ncc(C(F)(F)F)cc1Cl`, the cell number change is -24.2%. For the same molecule, the AC50 under setting [2] is 0.00461 µM [falling, full curve, poor fit]. The AC50 under setting [1] was 1.3 µM [falling, full curve].
For `Cc1c(NC(=O)COc2c(F)c(F)c(F)c(F)c2F)c(=O)n(-c2ccccc2)n1C`, the cell number change is 24.4%.
`NC(=O)COc1ccc(C(=O)NCC2(N3CCOCC3)CCCCC2)cc1`: the cell number change amounted to 19.4%. The AC50 under setting [1] was 0.0231 µM [falling, full curve, poor fit].
Consider `O=C(Nc1ccc2c(c1)OCO2)C1CCCN1C(=O)Nc1ccccc1` (centres undefined), for which the cell number change came to 6.3%. For the same molecule, the AC50 under setting [1] was 29.1 µM [rising, single point].
Regarding `CCOc1ccc2nc(SCCNS(=O)(=O)c3ccccc3)sc2c1`, the cell number change amounted to 81.1%. The AC50 under setting [2] is 6.51 µM [rising, full curve]. Further, under setting [1], the concentration at half-maximal activity (AC50) is 1.64 µM [rising, partial curve, poor fit].
For the molecule `COc1ccc(C(=O)Nc2cc(C)c3c(=O)oc4ccccc4c3n2)cc1`, the cell number change stood at 52.7%. Under setting [2], the AC50 was 6.51 µM [rising, partial curve].
Turning to `Oc1c(N=Nc2ccc(F)cc2)ccc2ccccc12`, under setting [1], the AC50 is 11.6 µM [falling, single point].
With `OC1(C(F)(F)F)CC(c2ccc3ccccc3c2)=NO1` (centres undefined), the cell number change is -24.8%. In addition, the AC50 under setting [1] is 0.00461 µM [falling, full curve, poor fit].
In the case of `COc1ccc(C(=O)COC(=O)C(CCCCN2C(=O)C3C4C=CC(C4)C3C2=O)N2C(=O)C3C4C=CC(C4)C3C2=O)cc1` (centres undefined), the cell number change was 3.92%. The AC50 under setting [1] is 5.17 µM [rising, single point].
On to `O=C(Cn1c2c(c(-c3ccccc3)cc1=O)CCCC2)N1CCCCCC1`, for which the cell number change was -18%. The AC50 under setting [1] is 0.731 µM [falling, full curve, poor fit].
Take `CCC1CSC(Nc2ccc(C(=O)/C=C/c3ccc(OC)c(OC)c3)cc2)=N1` (centres undefined): the cell number change is 9.89%. The AC50 under setting [2] was 2.31 µM [rising, single point]. In addition, under setting [1], the AC50 was 6.51 µM [rising, single point].
As for `CCOC(=O)NC(=O)c1cn(Nc2ncc(Cl)cc2C(F)(F)F)c(=O)[nH]c1=O`, the cell number change was -51.9%. Under setting [2], the AC50 was 0.58 µM [falling, full curve].
For `CCOP(=O)(OCC)c1nc(-c2ccccc2)oc1N1CCCCC1`, the cell number change is 30.3%. Besides, the AC50 under setting [2] was 0.366 µM [rising, full curve]. In addition, the AC50 under setting [1] was 6.51 µM [rising, single point].
In the case of `O=C(CSc1n[nH]c(=O)[nH]c1=O)N/N=C/c1ccccc1O`, the cell number change is 1.02%. Further, the AC50 under setting [1] was 20.6 µM [rising, single point].
Take `O=C(Nc1ccc2c(c1)OCCO2)C1CCN(C(=O)c2ccc([N+](=O)[O-])cc2)CC1`: the cell number change turned out to be 114%. The AC50 under setting [2] was 29.1 µM [rising, single point]. In addition, the AC50 under setting [1] is 29.1 µM [rising, single point].
For the molecule `CCC1CCCCN1C(=O)/C=C/c1ccc2c(c1)OCO2` (centres undefined), the cell number change amounted to 1.32%. The concentration at half-maximal activity (AC50) under setting [1] was 29.1 µM [rising, single point].
Take `COc1cccc(-c2nn(C)c3sc(C(=O)NCc4ccccn4)cc23)c1`: the cell number change was found to be 11.6%. In addition, the AC50 under setting [1] was 4.11 µM [rising, full curve].
With `O=C(Nc1cccc(NC(=O)c2ccccc2Cl)c1)c1ccc(F)cc1`, the cell number change is -12.3%.
`O=C(COC(=O)CNS(=O)(=O)c1cccc(F)c1)NCCc1ccccc1`: the cell number change is -0.803%.
As to `CCOC(=O)c1[nH]c(C)c(C(=O)NC2CCN(C(=O)OCC)CC2)c1C`, the cell number change is -14.3%. Moreover, the AC50 under setting [1] was 0.058 µM [rising, full curve, poor fit].
`O=C1NC(=Nc2ccccc2Cl)SC1(CO)CO`: the cell number change is -21.4%. Besides, the AC50 under setting [1] is 14.6 µM [falling, single point].
For the molecule `CN(C)c1ccc(N=Cc2nc(-c3ccccc3)oc2OC(=O)c2ccccc2)cc1`, the cell number change was 8.73%. In addition, the half-maximal activity concentration (AC50) under setting [2] was 6.51 µM [falling, single point].
As for `COc1ccc(NC(=S)NNC(=O)C2CC2c2ccc(C)cc2)cc1` (centres undefined), the cell number change amounted to 43.3%. In addition, the AC50 under setting [2] is 9.2 µM [rising, partial curve]. The AC50 under setting [1] is 0.651 µM [rising, single point].
Take `O=c1ccc(-c2ccc(S(=O)(=O)Nc3cccc(F)c3)o2)n[nH]1`: the cell number change is 43.9%. In addition, the AC50 under setting [2] is 16.4 µM [rising, single point].
On to `CCN=C1SC(C(=O)Nc2cccc(C(=O)O)c2)CC(=O)N1CC` (centres undefined), for which the cell number change was -2.86%. Further, under setting [1], the AC50 is 5.8 µM [rising, full curve].
Regarding `COc1ccc(-n2c(SCC(=O)NCCCN3CCCC3=O)nnc2C(C)N2CCCCC2)cc1` (centres undefined), the cell number change worked out at 3.7%. Moreover, the AC50 under setting [2] is 1.64 µM [falling, single point]. For the same molecule, the AC50 under setting [1] was 5.8 µM [falling, single point].
As for `Cc1csc(NC(=O)c2cc3c(s2)CCCCC3)n1`, the cell number change amounted to 60%. The AC50 under setting [1] was 18.4 µM [rising, partial curve].
Take `Cc1ccccc1-c1nnn(CC(=O)N2CCN(C(=O)c3ccco3)CC2)n1`: the cell number change was found to be 24.9%. The AC50 under setting [1] is 14.6 µM [rising, single point].
As to `O=C(O)c1cccc2c1C(=O)N(Cc1ccncc1)C2`, the cell number change was 4.1%. Further, the AC50 under setting [1] is 8.2 µM [rising, partial curve].
As for `CSc1nsc(SCC(=O)Nc2ccc(C(C)=O)cc2)n1`, the cell number change stood at 25.8%. Under setting [2], the AC50 is 0.0206 µM [rising, full curve].
As to `CCCCN(CCCC)S(=O)(=O)c1ccc2[nH]c(=O)[nH]c2c1`, the AC50 under setting [1] is 6.51 µM [rising, single point].

As usually defined, the AC50 is the midpoint of the concentration-response curve, whichever way the signal moves. A low value points to activity at low concentration.
